In the supplement of paper PMC10849652:
Some of the results follow.

By UniProt entry, the sequences of proteins in these tests, tags left out. Where a name states a change or a piece, a line headed by the entry shows the natural chain unless it says otherwise.
UniProt Q9GZZ1: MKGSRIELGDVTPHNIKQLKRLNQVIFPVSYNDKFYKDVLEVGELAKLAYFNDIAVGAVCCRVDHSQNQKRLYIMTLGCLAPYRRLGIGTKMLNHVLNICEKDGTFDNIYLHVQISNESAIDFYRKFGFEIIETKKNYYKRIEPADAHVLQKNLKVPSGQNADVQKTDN
UniProt Q32MK0: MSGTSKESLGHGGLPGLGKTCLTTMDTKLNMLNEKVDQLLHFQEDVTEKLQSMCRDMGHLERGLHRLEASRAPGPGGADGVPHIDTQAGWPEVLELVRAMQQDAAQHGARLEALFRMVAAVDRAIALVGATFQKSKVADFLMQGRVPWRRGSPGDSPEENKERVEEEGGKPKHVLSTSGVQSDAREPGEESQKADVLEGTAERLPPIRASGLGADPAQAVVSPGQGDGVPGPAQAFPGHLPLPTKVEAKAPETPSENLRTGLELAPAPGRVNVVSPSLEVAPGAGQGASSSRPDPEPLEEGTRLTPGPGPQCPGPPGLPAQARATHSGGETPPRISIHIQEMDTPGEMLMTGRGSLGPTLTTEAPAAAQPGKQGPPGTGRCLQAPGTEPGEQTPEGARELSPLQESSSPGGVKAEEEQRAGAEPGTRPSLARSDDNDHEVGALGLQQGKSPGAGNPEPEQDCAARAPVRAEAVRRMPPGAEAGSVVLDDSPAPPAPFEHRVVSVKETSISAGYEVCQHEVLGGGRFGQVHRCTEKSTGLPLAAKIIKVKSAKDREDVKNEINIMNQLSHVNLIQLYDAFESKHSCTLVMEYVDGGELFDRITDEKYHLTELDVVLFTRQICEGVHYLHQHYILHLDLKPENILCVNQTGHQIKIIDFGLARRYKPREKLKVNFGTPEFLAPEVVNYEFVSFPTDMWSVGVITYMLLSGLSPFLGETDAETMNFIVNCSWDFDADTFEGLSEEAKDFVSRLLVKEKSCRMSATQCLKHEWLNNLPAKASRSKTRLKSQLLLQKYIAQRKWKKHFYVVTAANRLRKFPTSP
UniProt Q15746, whole entry, looked up: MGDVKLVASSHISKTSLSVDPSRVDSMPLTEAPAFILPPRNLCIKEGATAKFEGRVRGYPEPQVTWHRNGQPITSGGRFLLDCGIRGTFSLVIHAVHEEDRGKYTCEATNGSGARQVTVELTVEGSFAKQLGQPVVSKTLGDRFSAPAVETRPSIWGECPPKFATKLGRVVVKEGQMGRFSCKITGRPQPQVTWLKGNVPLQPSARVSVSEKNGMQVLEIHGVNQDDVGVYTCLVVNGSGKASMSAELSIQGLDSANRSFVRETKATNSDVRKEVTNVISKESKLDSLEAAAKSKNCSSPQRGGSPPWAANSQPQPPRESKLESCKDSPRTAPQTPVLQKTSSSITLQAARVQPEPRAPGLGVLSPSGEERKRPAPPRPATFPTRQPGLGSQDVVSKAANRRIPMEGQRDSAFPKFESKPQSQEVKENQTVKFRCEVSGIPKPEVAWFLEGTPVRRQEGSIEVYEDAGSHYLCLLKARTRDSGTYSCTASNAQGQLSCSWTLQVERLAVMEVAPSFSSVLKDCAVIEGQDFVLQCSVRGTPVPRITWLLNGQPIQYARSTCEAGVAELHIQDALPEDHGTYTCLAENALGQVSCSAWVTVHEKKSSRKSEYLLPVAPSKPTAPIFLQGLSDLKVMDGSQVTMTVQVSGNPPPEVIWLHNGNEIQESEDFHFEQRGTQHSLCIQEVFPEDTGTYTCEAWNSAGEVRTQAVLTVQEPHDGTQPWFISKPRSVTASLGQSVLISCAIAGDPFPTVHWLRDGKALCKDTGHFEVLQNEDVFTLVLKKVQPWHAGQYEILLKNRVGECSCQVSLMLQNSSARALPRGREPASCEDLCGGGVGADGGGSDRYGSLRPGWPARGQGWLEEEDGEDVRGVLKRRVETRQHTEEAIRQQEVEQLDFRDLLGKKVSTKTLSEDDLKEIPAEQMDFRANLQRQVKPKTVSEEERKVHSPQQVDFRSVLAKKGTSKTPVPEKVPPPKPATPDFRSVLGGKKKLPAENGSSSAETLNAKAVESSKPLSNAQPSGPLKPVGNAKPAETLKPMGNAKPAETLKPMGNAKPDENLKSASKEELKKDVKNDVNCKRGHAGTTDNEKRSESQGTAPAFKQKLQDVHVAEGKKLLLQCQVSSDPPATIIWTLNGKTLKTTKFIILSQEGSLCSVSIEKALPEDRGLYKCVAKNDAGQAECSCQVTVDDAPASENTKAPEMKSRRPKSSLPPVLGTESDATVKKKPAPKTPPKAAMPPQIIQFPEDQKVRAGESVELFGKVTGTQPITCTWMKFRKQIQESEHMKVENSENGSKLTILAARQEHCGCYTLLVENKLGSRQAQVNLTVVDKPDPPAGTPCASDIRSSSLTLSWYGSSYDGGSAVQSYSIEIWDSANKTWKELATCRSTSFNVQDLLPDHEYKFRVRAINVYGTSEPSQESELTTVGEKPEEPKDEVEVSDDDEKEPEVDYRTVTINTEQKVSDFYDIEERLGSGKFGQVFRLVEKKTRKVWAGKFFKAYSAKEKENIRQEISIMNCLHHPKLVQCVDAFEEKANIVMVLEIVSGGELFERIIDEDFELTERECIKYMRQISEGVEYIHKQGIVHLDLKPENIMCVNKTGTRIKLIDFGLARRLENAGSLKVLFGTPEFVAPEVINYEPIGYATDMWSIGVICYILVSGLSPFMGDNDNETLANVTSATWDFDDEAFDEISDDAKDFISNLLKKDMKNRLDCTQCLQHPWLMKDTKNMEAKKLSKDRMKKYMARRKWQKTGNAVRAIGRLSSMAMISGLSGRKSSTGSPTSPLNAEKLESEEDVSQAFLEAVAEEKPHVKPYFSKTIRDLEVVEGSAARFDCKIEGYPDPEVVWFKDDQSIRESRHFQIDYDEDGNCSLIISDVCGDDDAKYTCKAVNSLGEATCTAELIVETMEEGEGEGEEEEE
UniProt Q8IW45: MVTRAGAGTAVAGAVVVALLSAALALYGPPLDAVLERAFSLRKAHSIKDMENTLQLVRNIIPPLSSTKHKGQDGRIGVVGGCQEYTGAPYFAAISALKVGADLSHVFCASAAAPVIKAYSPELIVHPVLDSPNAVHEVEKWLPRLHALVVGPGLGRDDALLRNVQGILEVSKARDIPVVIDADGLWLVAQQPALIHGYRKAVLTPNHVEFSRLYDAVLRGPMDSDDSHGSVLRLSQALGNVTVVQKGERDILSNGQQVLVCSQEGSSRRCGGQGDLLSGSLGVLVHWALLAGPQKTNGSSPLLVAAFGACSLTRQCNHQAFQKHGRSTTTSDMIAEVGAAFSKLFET
UniProt Q96H55, whole entry, looked up: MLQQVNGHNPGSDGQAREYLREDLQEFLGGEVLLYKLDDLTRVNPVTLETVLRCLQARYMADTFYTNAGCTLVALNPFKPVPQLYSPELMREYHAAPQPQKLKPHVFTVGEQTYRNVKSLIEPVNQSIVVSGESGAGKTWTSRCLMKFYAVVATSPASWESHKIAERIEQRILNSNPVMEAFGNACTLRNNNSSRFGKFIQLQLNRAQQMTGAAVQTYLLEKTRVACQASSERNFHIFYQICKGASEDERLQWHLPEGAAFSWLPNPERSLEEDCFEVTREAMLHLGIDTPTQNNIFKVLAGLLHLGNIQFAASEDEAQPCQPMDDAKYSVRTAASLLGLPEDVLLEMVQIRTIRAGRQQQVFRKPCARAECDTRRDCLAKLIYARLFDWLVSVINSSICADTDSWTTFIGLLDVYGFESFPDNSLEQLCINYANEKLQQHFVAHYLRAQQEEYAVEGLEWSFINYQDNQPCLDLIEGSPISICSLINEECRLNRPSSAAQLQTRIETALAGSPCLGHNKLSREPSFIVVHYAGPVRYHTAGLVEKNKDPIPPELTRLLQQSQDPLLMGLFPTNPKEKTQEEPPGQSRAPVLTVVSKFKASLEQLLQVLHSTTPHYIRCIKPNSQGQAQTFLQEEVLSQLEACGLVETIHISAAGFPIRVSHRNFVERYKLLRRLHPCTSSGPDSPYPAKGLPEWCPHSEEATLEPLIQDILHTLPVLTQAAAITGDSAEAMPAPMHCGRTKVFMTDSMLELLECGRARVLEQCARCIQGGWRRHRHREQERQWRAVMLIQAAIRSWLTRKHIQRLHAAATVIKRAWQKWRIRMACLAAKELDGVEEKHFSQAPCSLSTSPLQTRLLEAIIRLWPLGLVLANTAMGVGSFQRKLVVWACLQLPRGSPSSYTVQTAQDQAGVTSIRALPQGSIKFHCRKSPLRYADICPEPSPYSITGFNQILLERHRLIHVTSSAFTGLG
NBDY, A0A0U1RRE5, UniProt A0A0U1RRE5, whole entry, looked up: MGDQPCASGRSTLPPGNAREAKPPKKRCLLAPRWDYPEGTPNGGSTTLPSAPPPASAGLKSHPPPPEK
UniProt Q5TBK1: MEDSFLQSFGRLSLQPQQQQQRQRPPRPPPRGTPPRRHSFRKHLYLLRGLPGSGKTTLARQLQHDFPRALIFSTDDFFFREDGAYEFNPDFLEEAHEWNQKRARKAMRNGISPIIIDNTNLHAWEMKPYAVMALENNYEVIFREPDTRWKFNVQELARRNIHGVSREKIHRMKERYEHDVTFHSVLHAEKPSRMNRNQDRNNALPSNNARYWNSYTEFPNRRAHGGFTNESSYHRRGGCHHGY
UniProt Q9UK23: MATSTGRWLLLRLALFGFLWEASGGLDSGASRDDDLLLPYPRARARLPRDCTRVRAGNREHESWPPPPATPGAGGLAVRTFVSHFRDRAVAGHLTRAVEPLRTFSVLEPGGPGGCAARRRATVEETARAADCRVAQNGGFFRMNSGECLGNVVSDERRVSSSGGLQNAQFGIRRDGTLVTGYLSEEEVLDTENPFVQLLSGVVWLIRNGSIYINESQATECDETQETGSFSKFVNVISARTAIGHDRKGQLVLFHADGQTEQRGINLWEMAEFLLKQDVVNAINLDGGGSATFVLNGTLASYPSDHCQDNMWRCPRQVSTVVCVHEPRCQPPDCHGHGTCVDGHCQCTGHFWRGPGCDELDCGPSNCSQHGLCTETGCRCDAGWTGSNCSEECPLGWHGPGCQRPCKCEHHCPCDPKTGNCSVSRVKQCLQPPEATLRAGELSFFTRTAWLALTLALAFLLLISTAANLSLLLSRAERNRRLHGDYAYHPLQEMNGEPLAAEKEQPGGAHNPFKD
UniProt O00159, whole entry, looked up: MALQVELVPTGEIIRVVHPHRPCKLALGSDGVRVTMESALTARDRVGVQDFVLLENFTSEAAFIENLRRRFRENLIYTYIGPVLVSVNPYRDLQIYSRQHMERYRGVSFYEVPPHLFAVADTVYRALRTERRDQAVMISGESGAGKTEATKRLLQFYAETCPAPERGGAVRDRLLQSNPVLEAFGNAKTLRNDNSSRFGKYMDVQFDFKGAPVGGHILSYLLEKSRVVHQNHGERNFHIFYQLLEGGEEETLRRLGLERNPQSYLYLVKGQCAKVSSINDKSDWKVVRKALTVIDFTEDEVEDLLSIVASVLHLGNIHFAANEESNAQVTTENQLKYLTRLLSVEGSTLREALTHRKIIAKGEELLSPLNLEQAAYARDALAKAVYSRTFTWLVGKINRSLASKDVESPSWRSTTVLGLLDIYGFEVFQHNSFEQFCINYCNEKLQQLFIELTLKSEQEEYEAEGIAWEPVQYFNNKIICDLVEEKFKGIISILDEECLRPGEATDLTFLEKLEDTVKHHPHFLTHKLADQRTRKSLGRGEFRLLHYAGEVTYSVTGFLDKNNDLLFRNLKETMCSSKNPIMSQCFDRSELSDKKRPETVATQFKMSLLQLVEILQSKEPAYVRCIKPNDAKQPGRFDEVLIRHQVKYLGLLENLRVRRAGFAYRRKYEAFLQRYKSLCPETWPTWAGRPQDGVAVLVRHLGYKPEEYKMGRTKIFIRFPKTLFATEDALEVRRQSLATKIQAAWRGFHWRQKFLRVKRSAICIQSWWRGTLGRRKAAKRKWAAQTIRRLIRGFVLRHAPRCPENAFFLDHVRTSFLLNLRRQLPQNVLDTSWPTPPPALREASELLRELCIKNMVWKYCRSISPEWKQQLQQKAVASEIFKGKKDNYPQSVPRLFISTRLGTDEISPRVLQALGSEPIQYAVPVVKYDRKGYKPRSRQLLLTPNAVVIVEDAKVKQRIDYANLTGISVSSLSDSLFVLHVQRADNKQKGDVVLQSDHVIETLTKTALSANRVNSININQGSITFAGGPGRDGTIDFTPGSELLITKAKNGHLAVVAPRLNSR

What was measured:
Assay in all cases: log2 fold change, soluble protein after heating vs DMSO (PISA); higher = thermal stabilisation; K562 lysate, 10 uM; active = over 0.2 and 3.5 SD of the protein, either way, in both replicates (recomputed)
lapatinib = compound: CS(=O)(=O)CCNCc1ccc(-c2ccc3ncnc(Nc4ccc(OCc5cccc(F)c5)c(Cl)c4)c3c2)o1 [lapatinib]
Procedure, shortened: (§1)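 Log-two fold change in thermal stability relative to solvent controls is reported from duplicates. For each sample, crude K562 extract from dounce-homogenised pellets in PBS pH 7.4 with 1 mM MgCl2, at 1 mg/mL protein, was treated with 10 μM compound for 30 min. Aliquots heated for 3 min across 48°C-58°C were pooled, brought to 0.5% NP-40 at 4°C and cleared at 21,000xg for 90 min. The supernatant was quantified by TMTpro 16plex LC-MS/MS with channel sums equalised.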

pictilisib = compound: CS(=O)(=O)N1CCN(Cc2cc3nc(-c4cccc5[nH]ncc45)nc(N4CCOCC4)c3s2)CC1 [pictilisib]
Procedure, shortened: as §1

crizotinib = compound: C[C@@H](Oc1cc(-c2cnn(C3CCNCC3)c2)cnc1N)c1c(Cl)ccc(F)c1Cl [crizotinib]
Procedure, shortened: as §1

duvelisib = compound: C[C@H](Nc1ncnc2nc[nH]c12)c1cc2cccc(Cl)c2c(=O)n1-c1ccccc1 [duvelisib]
Procedure, shortened: as §1

tozasertib = compound: Cc1cc(Nc2cc(N3CCN(C)CC3)nc(Sc3ccc(NC(=O)C4CC4)cc3)n2)n[nH]1 [tozasertib]
Procedure, shortened: as §1

doramapimod = compound: Cc1ccc(-n2nc(C(C)(C)C)cc2NC(=O)Nc2ccc(OCCN3CCOCC3)c3ccccc23)cc1 [doramapimod]
Procedure, shortened: as §1

bafetinib = compound: Cc1ccc(NC(=O)c2ccc(CN3CC[C@H](N(C)C)C3)c(C(F)(F)F)c2)cc1Nc1nccc(-c2cncnc2)n1 [bafetinib]
Procedure, shortened: as §1

[1] = compound: C[C@H](C1=CC=C(C=C1)C(=O)NC2=C3C=CNC3=NC=C2)N
Procedure, shortened: as §1

gandotinib = compound: Cc1cc(Nc2cc(CN3CCOCC3)c3nc(C)c(Cc4ccc(Cl)cc4F)n3n2)n[nH]1 [gandotinib]
Procedure, shortened: as §1

[2] = compound: Cc1cccc(CC(=O)N2CCc3c2ccc(-c2cn(C)c4ncnc(N)c24)c3F)n1
Procedure, shortened: as §1

Target | log2 fold change (lapatinib) | log2 fold change (pictilisib) | log2 fold change (crizotinib) | log2 fold change (duvelisib) | log2 fold change (tozasertib) | log2 fold change (doramapimod) | log2 fold change (bafetinib) | log2 fold change [1] | log2 fold change (gandotinib) | log2 fold change [2]
NACA4P (UniProt Q9BZK3) | inactive: -0.048 | inactive: -0.139 | inactive: -0.135 | inactive: 0.161 | inactive: -0.106 | inactive: -0.03 | inactive: -0.158 | – | – | –
NAA50 (UniProt Q9GZZ1) | inactive: -0.013 | inactive: -0.004 | inactive: -0.038 | inactive: 0.011 | inactive: -0.028 | inactive: 0.013 | inactive: 0.042 | inactive: -0.018 | inactive: -0.007 | inactive: -0.005
MYLK3 (UniProt Q32MK0) | inactive: 0.081 | inactive: -0.035 | inactive: -0.023 | – | – | inactive: -0.001 | inactive: -0.085 | inactive: 0.219 | inactive: -0.333 | inactive: -0.436
MYLK (UniProt Q15746) | inactive: -0.006 | inactive: 0.015 | inactive: 0.082 | – | inactive: 0.114 | active: 0.611 | active: 0.712 | inactive: -0.181 | inactive: 0.033 | inactive: -0.047
NAXD (UniProt Q8IW45) | inactive: 0.002 | inactive: -0.023 | inactive: 0.009 | inactive: 0.009 | inactive: -0.008 | inactive: -0.006 | inactive: 0 | inactive: -0.017 | inactive: 0.1 | inactive: 0.132
MYOM1 (UniProt P52179) | inactive: 0.099 | inactive: 0.009 | inactive: 0.054 | inactive: -0.02 | inactive: -0.137 | inactive: -0.436 | inactive: -0.252 | inactive: -0.082 | inactive: 0.065 | inactive: 0.05
MYO19 (UniProt Q96H55) | inactive: -0.02 | inactive: -0.182 | inactive: 0.013 | inactive: -0.075 | inactive: 0.061 | inactive: -0.075 | inactive: -0.023 | inactive: 0.026 | inactive: -0.16 | inactive: -0.03
MVB12A (UniProt Q96EY5) | inactive: 0.012 | inactive: -0.027 | inactive: -0.025 | inactive: -0.04 | inactive: -0.046 | inactive: 0.012 | inactive: -0.015 | inactive: 0 | inactive: -0.031 | inactive: -0.031
NBDY, A0A0U1RRE5 | inactive: 0.069 | inactive: -0.074 | inactive: 0.078 | inactive: 0.062 | – | inactive: -0.348 | inactive: -0.025 | inactive: 0.059 | inactive: -0.037 | inactive: -0.128
N4BP2L1 (UniProt Q5TBK1) | inactive: -0.148 | inactive: -0.003 | – | – | inactive: 0.15 | – | inactive: -0.327 | inactive: -0.331 | inactive: 0.079 | inactive: 0.226
NAGPA (UniProt Q9UK23) | inactive: -0.086 | inactive: -0.115 | – | inactive: 0.041 | – | – | inactive: 0.024 | inactive: 0.234 | inactive: -0.095 | inactive: -0.23
MYO1C (UniProt O00159) | inactive: -0.078 | inactive: 0.007 | inactive: -0.09 | inactive: 0.075 | inactive: 0.014 | inactive: 0.065 | inactive: 0.068 | inactive: 0.027 | inactive: -0.036 | inactive: -0.023

Random excerpt: 2 entries already listed
Target | log2 fold change (lapatinib) | log2 fold change (pictilisib) | log2 fold change (crizotinib) | log2 fold change (duvelisib) | log2 fold change (tozasertib) | log2 fold change (doramapimod) | log2 fold change (bafetinib) | log2 fold change [1] | log2 fold change (gandotinib) | log2 fold change [2]
MYO1C (UniProt O00159) | inactive: -0.078 | inactive: 0.007 | inactive: -0.09 | inactive: 0.075 | inactive: 0.014 | inactive: 0.065 | inactive: 0.068 | inactive: 0.027 | inactive: -0.036 | inactive: -0.023
N4BP2L1 (UniProt Q5TBK1) | inactive: -0.148 | inactive: -0.003 | – | – | inactive: 0.15 | – | inactive: -0.327 | inactive: -0.331 | inactive: 0.079 | inactive: 0.226
